# Some of the results follow.
# The chains behind the UniProt entries cited, without tags or fusion partners. Where a name states a change or a piece, a line headed by the entry shows the natural chain unless it says otherwise.
# UniProt Q01995: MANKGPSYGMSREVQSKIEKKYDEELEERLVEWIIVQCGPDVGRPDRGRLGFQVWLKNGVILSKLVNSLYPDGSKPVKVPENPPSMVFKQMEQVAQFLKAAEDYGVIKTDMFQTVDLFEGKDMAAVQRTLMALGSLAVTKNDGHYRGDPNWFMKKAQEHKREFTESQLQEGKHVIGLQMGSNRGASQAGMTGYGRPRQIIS
# UniProt Q1ZZU3: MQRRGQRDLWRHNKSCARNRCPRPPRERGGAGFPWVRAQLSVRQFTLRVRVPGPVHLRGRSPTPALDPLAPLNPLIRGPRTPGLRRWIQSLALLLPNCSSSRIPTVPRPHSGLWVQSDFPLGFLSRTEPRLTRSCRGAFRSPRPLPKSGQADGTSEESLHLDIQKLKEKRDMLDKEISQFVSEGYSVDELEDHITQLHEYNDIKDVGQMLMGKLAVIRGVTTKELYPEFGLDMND
# UniProt Q8TDR2: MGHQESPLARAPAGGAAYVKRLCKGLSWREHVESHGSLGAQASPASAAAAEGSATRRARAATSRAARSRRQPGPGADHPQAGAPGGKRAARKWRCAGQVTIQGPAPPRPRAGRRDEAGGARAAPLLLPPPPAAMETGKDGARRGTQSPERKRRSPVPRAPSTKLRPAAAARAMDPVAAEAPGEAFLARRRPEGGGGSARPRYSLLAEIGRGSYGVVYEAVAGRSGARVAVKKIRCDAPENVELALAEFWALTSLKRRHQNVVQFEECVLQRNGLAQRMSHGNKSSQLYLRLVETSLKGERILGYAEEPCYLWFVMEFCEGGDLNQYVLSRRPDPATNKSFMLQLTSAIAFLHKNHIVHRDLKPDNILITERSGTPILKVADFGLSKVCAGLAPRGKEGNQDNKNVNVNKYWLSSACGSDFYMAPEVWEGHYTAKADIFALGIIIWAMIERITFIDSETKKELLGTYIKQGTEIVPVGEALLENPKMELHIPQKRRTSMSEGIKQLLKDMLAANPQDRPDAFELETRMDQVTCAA
# UniProt Q6ZWJ1: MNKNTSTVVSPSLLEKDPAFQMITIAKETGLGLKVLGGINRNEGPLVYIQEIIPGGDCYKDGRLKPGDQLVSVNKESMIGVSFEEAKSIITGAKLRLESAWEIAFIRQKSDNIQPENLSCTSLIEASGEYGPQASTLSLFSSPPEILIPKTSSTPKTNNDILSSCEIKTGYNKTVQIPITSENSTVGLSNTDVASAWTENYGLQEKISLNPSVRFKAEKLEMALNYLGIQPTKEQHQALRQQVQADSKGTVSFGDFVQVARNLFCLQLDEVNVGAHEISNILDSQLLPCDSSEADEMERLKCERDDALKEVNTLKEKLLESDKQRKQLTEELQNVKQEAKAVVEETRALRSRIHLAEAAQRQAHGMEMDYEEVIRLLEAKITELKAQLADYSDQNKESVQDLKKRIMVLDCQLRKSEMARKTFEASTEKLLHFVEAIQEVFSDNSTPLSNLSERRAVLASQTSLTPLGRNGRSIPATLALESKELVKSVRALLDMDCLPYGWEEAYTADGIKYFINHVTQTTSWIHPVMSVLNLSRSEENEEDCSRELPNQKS
# UniProt Q93075: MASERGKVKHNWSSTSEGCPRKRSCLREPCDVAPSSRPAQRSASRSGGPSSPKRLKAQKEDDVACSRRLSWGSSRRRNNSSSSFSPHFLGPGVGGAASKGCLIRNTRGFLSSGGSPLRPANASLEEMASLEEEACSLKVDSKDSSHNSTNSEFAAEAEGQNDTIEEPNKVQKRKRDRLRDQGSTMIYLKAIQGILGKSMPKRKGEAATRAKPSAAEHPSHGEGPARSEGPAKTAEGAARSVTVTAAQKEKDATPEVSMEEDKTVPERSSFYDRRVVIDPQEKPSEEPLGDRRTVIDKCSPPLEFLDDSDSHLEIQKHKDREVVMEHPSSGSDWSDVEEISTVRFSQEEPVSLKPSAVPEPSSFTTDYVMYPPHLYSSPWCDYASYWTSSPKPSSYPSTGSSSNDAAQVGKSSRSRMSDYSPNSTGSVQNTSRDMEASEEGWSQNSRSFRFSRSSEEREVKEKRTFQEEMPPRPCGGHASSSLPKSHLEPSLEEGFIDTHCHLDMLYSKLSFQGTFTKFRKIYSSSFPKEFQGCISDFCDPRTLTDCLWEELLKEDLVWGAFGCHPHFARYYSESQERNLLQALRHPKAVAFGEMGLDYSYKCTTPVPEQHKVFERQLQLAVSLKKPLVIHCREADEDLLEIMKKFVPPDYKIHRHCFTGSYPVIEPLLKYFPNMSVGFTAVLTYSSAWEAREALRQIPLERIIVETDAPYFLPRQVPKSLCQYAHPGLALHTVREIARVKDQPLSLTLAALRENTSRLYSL
# UniProt Q9H6P5: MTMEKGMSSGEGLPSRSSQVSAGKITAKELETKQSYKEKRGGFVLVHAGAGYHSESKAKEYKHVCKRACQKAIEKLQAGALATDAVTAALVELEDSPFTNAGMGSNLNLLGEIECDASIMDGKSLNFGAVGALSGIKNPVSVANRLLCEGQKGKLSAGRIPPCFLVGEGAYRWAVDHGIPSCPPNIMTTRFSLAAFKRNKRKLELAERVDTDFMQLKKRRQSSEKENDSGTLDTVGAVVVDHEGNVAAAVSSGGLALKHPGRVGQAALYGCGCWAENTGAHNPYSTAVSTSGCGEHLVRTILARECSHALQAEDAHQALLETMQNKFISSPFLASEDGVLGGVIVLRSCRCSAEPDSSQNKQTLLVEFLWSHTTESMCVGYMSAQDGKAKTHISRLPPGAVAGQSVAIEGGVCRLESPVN
# UniProt Q9Y2K9: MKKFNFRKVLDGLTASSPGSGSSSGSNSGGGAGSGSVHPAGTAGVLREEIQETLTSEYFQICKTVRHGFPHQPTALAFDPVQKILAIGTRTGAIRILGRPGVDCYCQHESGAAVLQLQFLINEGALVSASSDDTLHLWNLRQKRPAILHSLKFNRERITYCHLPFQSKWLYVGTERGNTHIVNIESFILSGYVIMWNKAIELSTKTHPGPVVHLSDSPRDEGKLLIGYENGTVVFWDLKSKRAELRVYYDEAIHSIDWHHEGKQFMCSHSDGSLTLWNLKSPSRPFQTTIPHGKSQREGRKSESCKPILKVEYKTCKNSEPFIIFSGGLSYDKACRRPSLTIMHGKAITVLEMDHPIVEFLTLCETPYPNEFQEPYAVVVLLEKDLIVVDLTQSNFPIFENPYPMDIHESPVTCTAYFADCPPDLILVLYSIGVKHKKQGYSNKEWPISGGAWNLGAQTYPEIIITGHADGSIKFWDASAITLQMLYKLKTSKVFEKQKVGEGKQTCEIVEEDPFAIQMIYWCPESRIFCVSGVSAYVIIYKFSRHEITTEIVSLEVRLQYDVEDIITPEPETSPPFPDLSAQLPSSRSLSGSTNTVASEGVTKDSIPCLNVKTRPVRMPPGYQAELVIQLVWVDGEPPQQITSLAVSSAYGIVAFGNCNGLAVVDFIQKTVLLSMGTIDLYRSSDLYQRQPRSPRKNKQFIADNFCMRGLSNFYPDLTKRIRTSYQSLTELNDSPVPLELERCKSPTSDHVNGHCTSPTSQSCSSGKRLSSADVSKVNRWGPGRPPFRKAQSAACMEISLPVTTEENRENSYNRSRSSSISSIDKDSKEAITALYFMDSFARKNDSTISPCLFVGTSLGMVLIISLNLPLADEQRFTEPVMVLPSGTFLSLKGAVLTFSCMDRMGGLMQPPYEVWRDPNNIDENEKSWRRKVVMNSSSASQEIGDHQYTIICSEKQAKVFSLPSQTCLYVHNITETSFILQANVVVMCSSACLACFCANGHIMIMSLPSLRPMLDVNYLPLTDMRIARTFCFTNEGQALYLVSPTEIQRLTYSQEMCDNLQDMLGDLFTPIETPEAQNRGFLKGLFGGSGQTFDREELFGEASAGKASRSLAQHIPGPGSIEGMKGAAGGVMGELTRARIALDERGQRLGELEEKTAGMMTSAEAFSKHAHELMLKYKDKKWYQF
# UniProt Q9UMX1: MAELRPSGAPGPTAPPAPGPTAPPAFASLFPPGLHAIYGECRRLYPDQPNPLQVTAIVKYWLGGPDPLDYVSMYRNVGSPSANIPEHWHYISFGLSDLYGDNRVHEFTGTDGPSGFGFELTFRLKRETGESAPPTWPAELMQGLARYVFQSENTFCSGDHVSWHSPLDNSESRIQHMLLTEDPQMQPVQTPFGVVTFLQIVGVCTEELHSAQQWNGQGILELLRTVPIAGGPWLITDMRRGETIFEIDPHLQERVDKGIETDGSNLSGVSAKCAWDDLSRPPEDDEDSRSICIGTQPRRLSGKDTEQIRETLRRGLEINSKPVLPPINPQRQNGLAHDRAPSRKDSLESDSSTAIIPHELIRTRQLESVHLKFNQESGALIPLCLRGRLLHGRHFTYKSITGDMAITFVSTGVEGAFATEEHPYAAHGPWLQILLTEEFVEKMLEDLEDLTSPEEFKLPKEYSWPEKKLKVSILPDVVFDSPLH
# UniProt Q9Y2Z0: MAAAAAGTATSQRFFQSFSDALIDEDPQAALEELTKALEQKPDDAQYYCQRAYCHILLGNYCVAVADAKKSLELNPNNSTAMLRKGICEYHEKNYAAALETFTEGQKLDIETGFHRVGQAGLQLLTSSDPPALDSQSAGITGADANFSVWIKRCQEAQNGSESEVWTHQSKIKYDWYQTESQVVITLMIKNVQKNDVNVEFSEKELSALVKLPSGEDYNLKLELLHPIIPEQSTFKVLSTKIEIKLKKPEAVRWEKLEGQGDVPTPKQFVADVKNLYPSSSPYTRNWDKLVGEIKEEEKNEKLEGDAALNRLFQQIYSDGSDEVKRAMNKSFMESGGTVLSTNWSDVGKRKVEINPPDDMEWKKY
# UniProt Q9NYJ8: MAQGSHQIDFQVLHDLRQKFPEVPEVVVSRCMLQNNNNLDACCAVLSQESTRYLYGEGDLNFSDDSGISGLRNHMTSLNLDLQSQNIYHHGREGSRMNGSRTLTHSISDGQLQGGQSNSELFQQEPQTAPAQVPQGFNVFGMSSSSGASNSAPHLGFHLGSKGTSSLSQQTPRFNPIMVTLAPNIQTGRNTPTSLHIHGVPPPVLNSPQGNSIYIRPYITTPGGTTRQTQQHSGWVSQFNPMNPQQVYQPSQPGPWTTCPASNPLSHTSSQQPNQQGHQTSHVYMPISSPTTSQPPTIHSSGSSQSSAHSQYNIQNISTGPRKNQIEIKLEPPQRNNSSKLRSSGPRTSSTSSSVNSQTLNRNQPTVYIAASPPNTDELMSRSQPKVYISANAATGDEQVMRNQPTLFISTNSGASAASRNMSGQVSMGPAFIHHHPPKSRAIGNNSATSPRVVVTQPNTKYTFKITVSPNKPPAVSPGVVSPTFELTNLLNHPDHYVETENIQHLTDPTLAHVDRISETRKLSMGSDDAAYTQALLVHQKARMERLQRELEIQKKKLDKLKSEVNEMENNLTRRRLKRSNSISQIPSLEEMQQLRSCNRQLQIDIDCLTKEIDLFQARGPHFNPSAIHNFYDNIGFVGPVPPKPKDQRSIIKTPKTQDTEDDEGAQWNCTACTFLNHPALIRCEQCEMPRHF
# UniProt Q8IX01: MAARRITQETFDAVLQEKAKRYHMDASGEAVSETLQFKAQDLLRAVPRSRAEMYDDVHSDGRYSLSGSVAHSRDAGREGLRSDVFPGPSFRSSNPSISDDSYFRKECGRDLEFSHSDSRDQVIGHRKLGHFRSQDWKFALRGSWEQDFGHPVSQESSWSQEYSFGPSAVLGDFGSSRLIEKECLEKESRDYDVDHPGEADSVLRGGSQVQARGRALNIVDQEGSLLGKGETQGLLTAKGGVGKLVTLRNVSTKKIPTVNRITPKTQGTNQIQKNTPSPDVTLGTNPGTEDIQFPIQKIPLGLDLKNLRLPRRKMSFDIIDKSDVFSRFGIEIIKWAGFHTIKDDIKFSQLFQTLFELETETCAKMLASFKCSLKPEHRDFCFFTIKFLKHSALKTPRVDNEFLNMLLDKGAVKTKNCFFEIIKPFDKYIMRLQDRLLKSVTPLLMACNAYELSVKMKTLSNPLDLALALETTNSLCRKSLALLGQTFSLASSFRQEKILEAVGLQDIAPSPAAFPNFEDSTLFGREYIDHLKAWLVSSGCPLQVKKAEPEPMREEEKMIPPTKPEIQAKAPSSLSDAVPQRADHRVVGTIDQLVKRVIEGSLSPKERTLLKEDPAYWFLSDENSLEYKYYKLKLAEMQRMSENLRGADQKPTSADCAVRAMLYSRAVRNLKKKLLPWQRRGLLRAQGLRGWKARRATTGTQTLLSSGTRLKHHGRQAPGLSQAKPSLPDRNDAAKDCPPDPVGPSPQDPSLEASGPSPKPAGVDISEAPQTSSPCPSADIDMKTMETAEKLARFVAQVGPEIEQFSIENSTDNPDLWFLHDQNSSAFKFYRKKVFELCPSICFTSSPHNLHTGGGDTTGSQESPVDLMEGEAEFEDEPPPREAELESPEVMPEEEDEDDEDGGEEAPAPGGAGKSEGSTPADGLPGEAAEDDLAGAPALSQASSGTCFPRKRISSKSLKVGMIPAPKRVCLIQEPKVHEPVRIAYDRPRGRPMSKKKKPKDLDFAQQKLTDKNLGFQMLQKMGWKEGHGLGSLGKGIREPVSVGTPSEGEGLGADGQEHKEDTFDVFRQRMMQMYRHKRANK
# What was measured:
# Assay in all cases: log2 fold change, soluble protein after heating vs DMSO (PISA); higher = thermal stabilisation; K562 cells, 10 uM, 30 min; active = over 0.2 and 3.5 SD of the protein, either way, in both replicates (recomputed)
# [1] = compound: NC(=O)Nc1cc(-c2cccc(F)c2)sc1C(=O)N[C@H]1CCCNC1
# Summary of the method: (§1)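 Aliquots of K562 cells (2×10^6 cells/mL) treated with 10 μM compound for 30 min were heated for 3 min over 48°C-58°C. After pooling and extraction in PBS with 0.5% NP-40 at 4°C, soluble protein from a 21,000xg, 90 min spin was quantified by TMTpro 16plex LC-MS/MS with channel sums equalised. Thermal stability is expressed against control samples, from duplicates, as a log2 fold change.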
# [2] = compound: Nc1ccccc1NC(=O)c1ccc(CNC(=O)OCc2cccnc2)cc1 [entinostat]
# Summary of the method: as §1
# [3] = compound: O=C(CCCCCCC(=O)Nc1ccccc1)NO [vorinostat]
# Summary of the method: as §1
# [4] = compound: O=C(CCCCCCNC(=O)c1cnc(N(c2ccccc2)c2ccccc2Cl)nc1)NO [citarinostat]
# Summary of the method: as §1
# [5] = compound: c1cc(OCCN2CCCCC2)cc(-c2n[nH]c3ccc(-c4nnc[nH]4)cc23)c1
# Summary of the method: as §1
# [6] = compound: c1cn2cc(-c3ccc4cn[nH]c4c3)nc(Nc3ccc(N4CCOCC4)cc3)c2n1 [entospletinib]
# Summary of the method: as §1
# [7] = compound: NC(=O)c1cnc(N[C@@H]2CCCC[C@@H]2N)nc1Nc1cccc(-n2nccn2)c1
# Summary of the method: as §1
# [8] = compound: NCC(=O)Nc1ccc(-n2nc(C(F)(F)F)cc2-c2ccc3c(ccc4ccccc43)c2)cc1
# Summary of the method: as §1
# [9] = compound: O=C1NC(=O)C(c2cnc3ccccn23)=C1c1cn2c3c(cc(F)cc13)CN(C(=O)N1CCCCC1)CC2
# Summary of the method: as §1
# [10] = compound: NC1(c2ccc(-c3nc4ccn5c(=O)[nH]nc5c4cc3-c3ccccc3)cc2)CCC1
# Summary of the method: as §1
# [11] = compound: O=C(O)c1ccc2c(c1)nc(Nc1cccc(Cl)c1)c1ccncc12 [silmitasertib]
# Summary of the method: as §1
target,measurement,setting,value
TAGLN (UniProt Q01995),log2 fold change,[1],inactive: 0.042
same,log2 fold change,[2],inactive: 0.122
same,log2 fold change,[3],inactive: -0.014
same,log2 fold change,[4],inactive: 0.06
same,log2 fold change,[5],inactive: -0.111
same,log2 fold change,[6],inactive: 0.018
SWI5 (UniProt Q1ZZU3),log2 fold change,[1],inactive: -0.089
same,log2 fold change,[7],inactive: -0.005
same,log2 fold change,[8],inactive: -0.073
same,log2 fold change,[2],inactive: 0.151
same,log2 fold change,[3],inactive: 0.107
same,log2 fold change,[9],inactive: 0.041
SYNGR1 isoform 3 (UniProt O43759),log2 fold change,[4],inactive: 0.04
same,log2 fold change,[5],inactive: -0.168
same,log2 fold change,[6],inactive: 0
SYTL4 (UniProt Q96C24),log2 fold change,[1],inactive: 0.037
same,log2 fold change,[7],inactive: -0.026
same,log2 fold change,[10],inactive: -0.043
same,log2 fold change,[2],inactive: -0.128
same,log2 fold change,[11],inactive: 0.029
same,log2 fold change,[9],inactive: -0.046
STK35 (UniProt Q8TDR2),log2 fold change,[7],inactive: -0.139
same,log2 fold change,[10],inactive: -0.299
same,log2 fold change,[11],inactive: 0.129
SUZ12 (UniProt Q15022),log2 fold change,[7],inactive: -0.018
same,log2 fold change,[10],inactive: -0.299
same,log2 fold change,[11],inactive: 0.016
TBC1D10A (UniProt Q9BXI6),log2 fold change,[8],inactive: -0.262
same,log2 fold change,[3],inactive: 0.198
same,log2 fold change,[9],inactive: -0.009
STK36 (UniProt Q9NRP7),log2 fold change,[7],inactive: -0.168
same,log2 fold change,[10],inactive: 0.047
same,log2 fold change,[3],inactive: 0.087
same,log2 fold change,[11],inactive: -0.175
TAF13 (UniProt Q15543),log2 fold change,[1],inactive: -0.047
same,log2 fold change,[10],inactive: 0.155
same,log2 fold change,[8],inactive: -0.113
same,log2 fold change,[2],inactive: -0.016
same,log2 fold change,[3],inactive: -0.02
same,log2 fold change,[11],inactive: -0.038
same,log2 fold change,[9],inactive: -0.201
SULT1E1 (UniProt P49888),log2 fold change,[3],inactive: 0.145
TAF9B (UniProt Q9HBM6),log2 fold change,[1],inactive: -0.041
same,log2 fold change,[10],inactive: -0.244
same,log2 fold change,[8],inactive: 0.113
same,log2 fold change,[2],inactive: -0.102
same,log2 fold change,[3],inactive: 0.127
same,log2 fold change,[11],inactive: 0.242
same,log2 fold change,[9],inactive: 0.116
SUPT7L (UniProt O94864),log2 fold change,[10],inactive: 0.077
same,log2 fold change,[11],inactive: 0.04
STXBP4 (UniProt Q6ZWJ1),log2 fold change,[8],inactive: -0.015
same,log2 fold change,[9],inactive: 0.232
STON2 isoform 3 (UniProt Q8WXE9),log2 fold change,[3],inactive: -0.2
same,log2 fold change,[4],inactive: 0.038
same,log2 fold change,[5],inactive: -0.043
same,log2 fold change,[6],inactive: -0.073
TBC1D12 (UniProt O60347),log2 fold change,[7],inactive: 0.011
same,log2 fold change,[10],inactive: 0.048
same,log2 fold change,[8],inactive: 0.117
same,log2 fold change,[4],inactive: -0.013
same,log2 fold change,[11],inactive: 0.205
same,log2 fold change,[9],inactive: 0.027
same,log2 fold change,[5],inactive: 0.033
same,log2 fold change,[6],inactive: -0.009
STK3 isoform 2 (UniProt Q13188),log2 fold change,[7],inactive: 0.018
same,log2 fold change,[10],inactive: -0.064
same,log2 fold change,[8],inactive: -0.019
same,log2 fold change,[2],inactive: -0.01
same,log2 fold change,[3],inactive: -0.023
same,log2 fold change,[4],inactive: 0.028
same,log2 fold change,[11],inactive: 0
same,log2 fold change,[9],inactive: 0.016
same,log2 fold change,[5],inactive: -0.074
same,log2 fold change,[6],inactive: 0.004
STRN3 isoform 2 (UniProt Q13033),log2 fold change,[7],inactive: 0.006
same,log2 fold change,[10],inactive: 0.032
same,log2 fold change,[8],inactive: -0.053
same,log2 fold change,[3],inactive: -0.043
same,log2 fold change,[11],inactive: 0.059
same,log2 fold change,[9],inactive: -0.121
TATDN2 (UniProt Q93075),log2 fold change,[1],inactive: -0.115
same,log2 fold change,[7],inactive: 0.003
same,log2 fold change,[8],inactive: -0.126
same,log2 fold change,[2],inactive: 0.009
same,log2 fold change,[3],inactive: 0.004
same,log2 fold change,[4],active: -0.52
same,log2 fold change,[9],inactive: 0.067
same,log2 fold change,[5],inactive: 0.06
TASP1 (UniProt Q9H6P5),log2 fold change,[10],inactive: 0.313
same,log2 fold change,[11],inactive: 0.167
same,log2 fold change,[9],inactive: 0.32
SYK (UniProt P43405),log2 fold change,[8],inactive: -0.029
same,log2 fold change,[4],inactive: -0.029
same,log2 fold change,[9],inactive: 0.075
same,log2 fold change,[5],inactive: -0.123
TAOK2 (UniProt Q9UL54),log2 fold change,[10],inactive: -0.01
same,log2 fold change,[3],inactive: 0.081
same,log2 fold change,[4],inactive: 0.056
same,log2 fold change,[11],inactive: -0.009
same,log2 fold change,[9],inactive: 0.184
same,log2 fold change,[5],inactive: 0.12
SYS1 (UniProt Q8N2H4),log2 fold change,[3],inactive: -0.146
same,log2 fold change,[4],inactive: -0.034
same,log2 fold change,[5],inactive: 0.069
same,log2 fold change,[6],inactive: -0.209
TANGO6 (UniProt Q9C0B7),log2 fold change,[1],inactive: -0.007
same,log2 fold change,[7],inactive: -0.002
same,log2 fold change,[10],inactive: -0.167
same,log2 fold change,[2],inactive: 0.035
same,log2 fold change,[4],inactive: -0.071
same,log2 fold change,[11],inactive: 0.084
same,log2 fold change,[9],inactive: 0.017
same,log2 fold change,[5],inactive: -0.089
TAF12 (UniProt Q16514),log2 fold change,[1],inactive: 0.181
same,log2 fold change,[10],inactive: -0.141
same,log2 fold change,[8],inactive: 0.056
same,log2 fold change,[2],inactive: 0.04
same,log2 fold change,[3],inactive: -0.022
same,log2 fold change,[4],inactive: -0.041
same,log2 fold change,[11],inactive: 0.082
same,log2 fold change,[5],inactive: -0.029
same,log2 fold change,[6],inactive: -0.005
STOML1 (UniProt Q9UBI4),log2 fold change,[8],inactive: 0.058
same,log2 fold change,[4],inactive: -0.002
same,log2 fold change,[5],inactive: -0.122
same,log2 fold change,[6],inactive: 0.132
TAF5 (UniProt Q15542),log2 fold change,[8],inactive: -0.143
same,log2 fold change,[3],inactive: -0.052
same,log2 fold change,[9],inactive: 0.028
STS (UniProt P08842),log2 fold change,[7],inactive: -0.093
same,log2 fold change,[4],inactive: -0.051
same,log2 fold change,[5],inactive: 0.272
same,log2 fold change,[6],inactive: -0.029
TAF11 (UniProt Q15544),log2 fold change,[1],inactive: 0.04
same,log2 fold change,[7],inactive: 0.046
same,log2 fold change,[10],inactive: 0.03
same,log2 fold change,[2],inactive: -0.046
same,log2 fold change,[3],inactive: -0.003
same,log2 fold change,[11],inactive: 0.035
STXBP5L (UniProt Q9Y2K9),log2 fold change,[1],inactive: 0.216
same,log2 fold change,[2],inactive: 0.165
same,log2 fold change,[3],inactive: 0.048
same,log2 fold change,[4],inactive: 0.085
same,log2 fold change,[5],inactive: -0.195
same,log2 fold change,[6],inactive: -0.038
SYP (UniProt P08247),log2 fold change,[7],inactive: 0.013
same,log2 fold change,[10],inactive: -0.008
same,log2 fold change,[8],inactive: 0.005
same,log2 fold change,[3],inactive: -0.068
same,log2 fold change,[4],inactive: -0.148
same,log2 fold change,[11],inactive: 0.092
same,log2 fold change,[9],inactive: -0.095
same,log2 fold change,[5],inactive: -0.014
same,log2 fold change,[6],inactive: 0.034
SUFU (UniProt Q9UMX1),log2 fold change,[7],inactive: -0.098
SUGT1 isoform 2 (UniProt Q9Y2Z0),log2 fold change,[10],inactive: -0.026
same,log2 fold change,[8],inactive: 0.033
same,log2 fold change,[4],inactive: -0.13
same,log2 fold change,[11],inactive: -0.011
same,log2 fold change,[5],inactive: -0.028
same,log2 fold change,[6],inactive: 0.102
STYX (UniProt Q8WUJ0),log2 fold change,[3],inactive: 0.139
TAF5L (UniProt O75529),log2 fold change,[4],inactive: 0.004
same,log2 fold change,[5],inactive: -0.024
same,log2 fold change,[6],inactive: -0.057
TAB2 (UniProt Q9NYJ8),log2 fold change,[1],inactive: 0.056
same,log2 fold change,[8],inactive: -0.17
same,log2 fold change,[2],inactive: 0.034
same,log2 fold change,[9],inactive: 0.095
SUSD1 isoform 2 (UniProt Q6UWL2),log2 fold change,[7],inactive: -0.053
same,log2 fold change,[8],inactive: -0.118
same,log2 fold change,[3],inactive: 0.056
same,log2 fold change,[4],inactive: 0.044
same,log2 fold change,[5],inactive: 0.032
same,log2 fold change,[6],inactive: -0.001
SUGP2 (UniProt Q8IX01),log2 fold change,[1],inactive: 0.016
same,log2 fold change,[2],inactive: 0.022
same,log2 fold change,[9],inactive: 0
SUPT5H isoform 2 (UniProt O00267),log2 fold change,[8],inactive: -0.046

# Reprinted at random: 2 records from the list, in no set order.
target,measurement,setting,value
STK3 isoform 2 (UniProt Q13188),log2 fold change,[11],inactive: 0
TAOK2 (UniProt Q9UL54),log2 fold change,[5],inactive: 0.12

# Part of the list above, tab-delimited.
target	measurement	setting	value
TAF12 (UniProt Q16514)	log2 fold change	[10]	inactive: -0.141
same	log2 fold change	[8]	inactive: 0.056
same	log2 fold change	[2]	inactive: 0.04
same	log2 fold change	[3]	inactive: -0.022
same	log2 fold change	[4]	inactive: -0.041

# 3 entries from above in another layout.
target	measurement	setting	value
SWI5 (UniProt Q1ZZU3)	log2 fold change	[8]	inactive: -0.073
TBC1D10A (UniProt Q9BXI6)	log2 fold change	[8]	inactive: -0.262
TASP1 (UniProt Q9H6P5)	log2 fold change	[9]	inactive: 0.32

# Reference: the supplement of paper PMC10849652
